We go through two molecules from article PMC4379099 (PLoS Pathogens, 2015).

Sequences of proteins named here, by UniProt entry; tags and fusion partners are left off. Residues count along the entry.
UniProt C0LGT6, residues 674-1031: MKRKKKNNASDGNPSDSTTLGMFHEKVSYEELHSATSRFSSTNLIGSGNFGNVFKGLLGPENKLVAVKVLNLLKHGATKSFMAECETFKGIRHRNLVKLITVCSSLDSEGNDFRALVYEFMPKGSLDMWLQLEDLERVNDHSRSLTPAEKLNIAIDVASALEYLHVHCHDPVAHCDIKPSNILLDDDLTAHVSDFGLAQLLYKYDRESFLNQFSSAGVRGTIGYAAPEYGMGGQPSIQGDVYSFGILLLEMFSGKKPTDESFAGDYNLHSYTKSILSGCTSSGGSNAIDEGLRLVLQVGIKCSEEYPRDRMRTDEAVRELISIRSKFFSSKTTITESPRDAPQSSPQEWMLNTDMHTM

Results are given in words; binding and its absence hold for the method and conditions named. Some binding calls cover weakened binding; strength is not graded here.

For assay [1], the target named is EFR intracellular domain (ID) (674-1032aa) (Arabidopsis) (UniProt C0LGT6). The experiment in a line: two-hybrid.
The target in assay [2] is T1, XA21 intracellular domain (668-1025aa) (rice (Oryza longistaminata)) (UniProt Q40640).
T1 sequence: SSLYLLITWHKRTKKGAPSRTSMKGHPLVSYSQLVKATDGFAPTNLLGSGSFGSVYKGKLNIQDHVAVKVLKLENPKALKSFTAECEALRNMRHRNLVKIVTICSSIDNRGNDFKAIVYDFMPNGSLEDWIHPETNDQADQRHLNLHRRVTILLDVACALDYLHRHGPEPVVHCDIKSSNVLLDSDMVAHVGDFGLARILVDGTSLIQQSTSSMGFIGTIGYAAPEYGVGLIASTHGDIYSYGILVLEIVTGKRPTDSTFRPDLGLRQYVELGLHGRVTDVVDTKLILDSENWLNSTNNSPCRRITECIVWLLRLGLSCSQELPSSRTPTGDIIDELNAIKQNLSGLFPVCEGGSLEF
The experiment in a line: two-hybrid.

B1: OsSERK2 intracellular domain (260-628aa) (domain or fragment, UniProt Q7XV05 260-628)
chain: AIGFAWWRRRKPEEHFFDVPAEEDPEVHLGQLKRFSLRELQVATDNFSNKNILGRGGFGKVYKGRLADGSLVAVKRLKEERTPGGELQFQTEVEMISMAVHRNLLRLRGFCMTPTERLLVYPYMANGSVASRLRERQPNDPPLEWQTRTRIALGSARGLSYLHDHCDPKIIHRDVKAANILLDEDFEAVVGDFGLAKLMDYKDTHVTTAVRGTIGHIAPEYLSTGKSSEKTDVFGYGIMLLELITGQRAFDLARLANDDDVMLLDWVKGLLKEKKVEMLVDPDLQSGFVEHEVESLIQVALLCTQGSPMDRPKMSEVVRMLEGDGLAERWEEWQKVEVVRQEAELAPRHNDWIVDSTYNLRAMELSGPR
For B1, the binding result in assay [1] is given as “no binding”; in assay [2], “binds”.

B2: XB3 full-length (FL) (1-450aa) (protein, UniProt Q65XV2 1-450)
chain: MGHGVSCARTGDEHDFFRAAQLGDLDALAALLAADPSLARRATLYDRLSVLHIAAANGRIEVLSMFLDRGAPPDAVNRHKQTPLMLAAMHGKIDCVLKLLQADANILMFDSVHARTCLHHAAYYGHVDCLQAILAAAQTTPVADSWGFARFVNVRDDHGATPLHLAARQGRPGCVQVLLENGAIVSALTGSYGFPGSTSLHLAARSGNLDCIRKLLAWGADRLQRDSAGRIPYSVALKRNHGACAALLNPTSAEPMVWPSPLKFISELEPEAKALLEAALMEANREREKKILNGTKYSLPSPSPGDDSADDDACSEVSDTELCCICFDQACTIEVQDCGHQMCAPCTLALCCHNKPNPTTLTPPSPACPFCRGSISRLVVAQTRSACDPDKPSSLQLTRKRSRRSHNLSEGSSSFKGLPSAMGSFSKLGRGSSRMADSDSSNLDKPEHDL
Take B2: the binding entry in assay [1] is listed as “no binding”; in assay [2], “binds”.
